Assay results as given in article PMC7599071.
Results are given in words; binding and its absence hold for the method and conditions named. Binding seen in cells or lysates may run through a third protein. These calls come from enrichment with a bait or labelling near it, and not all partners need be listed.

By UniProt entry, the sequences of proteins in these tests, tags left out.
UniProt Q96EQ9: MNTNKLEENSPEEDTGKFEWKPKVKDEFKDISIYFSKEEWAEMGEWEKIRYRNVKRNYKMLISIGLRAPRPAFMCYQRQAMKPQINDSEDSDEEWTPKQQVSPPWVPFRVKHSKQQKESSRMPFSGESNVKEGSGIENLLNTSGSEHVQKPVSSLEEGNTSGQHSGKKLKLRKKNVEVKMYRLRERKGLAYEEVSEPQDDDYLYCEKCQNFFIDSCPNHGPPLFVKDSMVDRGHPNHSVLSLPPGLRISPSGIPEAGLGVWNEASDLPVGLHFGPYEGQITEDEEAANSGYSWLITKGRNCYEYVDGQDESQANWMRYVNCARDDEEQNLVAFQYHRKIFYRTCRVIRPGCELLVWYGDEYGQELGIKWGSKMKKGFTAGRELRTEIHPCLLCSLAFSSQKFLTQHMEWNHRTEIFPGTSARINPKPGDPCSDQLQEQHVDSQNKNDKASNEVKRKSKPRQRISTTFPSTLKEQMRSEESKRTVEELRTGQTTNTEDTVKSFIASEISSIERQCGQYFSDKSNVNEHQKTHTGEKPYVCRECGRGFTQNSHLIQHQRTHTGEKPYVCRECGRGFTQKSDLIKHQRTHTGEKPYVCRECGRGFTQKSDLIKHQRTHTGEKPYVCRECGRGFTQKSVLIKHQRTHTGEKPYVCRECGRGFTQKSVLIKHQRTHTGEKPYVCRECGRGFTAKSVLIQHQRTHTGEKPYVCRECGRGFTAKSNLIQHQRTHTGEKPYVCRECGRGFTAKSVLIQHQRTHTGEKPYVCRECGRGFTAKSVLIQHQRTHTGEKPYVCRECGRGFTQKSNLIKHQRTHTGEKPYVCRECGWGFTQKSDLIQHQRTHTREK

Molecular target: PRDM9 (endogenous in mouse testis, B6 strain) (mouse (endogenous in B6 testis)) (UniProt Q96EQ9)
Experiment: affinity purification with mass spectrometry; nuclear extracts of testes from 12 to 13 dpp B6 mice, without (rep1) or after incubation with benzonase (rep2); IP with anti-PRDM9 antibody or normal rabbit serum (mock); mass spectrometry

B1: HELLS (endogenous in mouse testis) (protein, UniProt Q60848 1-821)
chain: MAEQTEPAVITPAMLEEEEQLEAAGLEKERKMLEEAQKSWDRESTEIRYRRLQHLLEKSNIYSKFLLTKMEQQQLEEQKKKEKLEKKKRSLKLTEGKSLVDGNGEKPVMKKKRGREDESYNISEVMSKEEILSVAKKHKDNEDESSSTTSLCVEDIQKNKDSNSMIKDRLSQTVRQNSKFFFDPVRKCNGQPVPFQQPKHFTGGVMRWYQVEGMEWLRMLWENGINGILADEMGLGKTVQCIATIALMIQRGVPGPFLVCGPLSTLPNWMAEFKRFTPEIPTLLYHGTREDRRKLVKNIHKRQGTLQIHPVVVTSFEIAMRDQNALQHCYWKYLIVDEGHRIKNMKCRLIRELKRFNADNKLLLTGTPLQNNLSELWSLLNFLLPDVFDDLKSFESWFDITSLSETAEDIIAKEREQNVLHMLHQILTPFLLRRLKSDVALEVPPKREVVVYAPLCNKQEIFYTAIVNRTIANMFGSCEKETVELSPTGRPKRRSRKSINYSELDQFPSELEKLISQIQPEVNRERTVVEGNIPIESEVNLKLRNIMMLLRKCCNHPYMIEYPIDPVTQEFKIDEELVTNSGKFLILDRMLPELKKRGHKVLVFSQMTSMLDILMDYCHLRNFIFSRLDGSMSYSEREKNIYSFNTDPDVFLFLVSTRAGGLGINLTAADTVIIYDSDWNPQSDLQAQDRCHRIGQTKPVVVYRLVTANTIDQKIVERAAAKRKLEKLIIHKNHFKGGQSGLSQSKNFLDAKELMELLKSRDYEREVKGSREKVISDEDLELLLDRSDLIDQMKASRPIKGKTGIFKILENSEDSSAECLF
B1 was tested, and the binding was “binds”.
